The target of test [1] is GFP-tagged SEPT9 isoform B (human). As to the kind of experiment: pull-down; GFP-TRAP: 293T transfected with GFP-tagged ESCRT subunits or SEPT9 isoforms and AKTIP-Myc-Flag; lysis buffer 150mM NaCl, 50 mM Tris pH7.5, 1 mM EDTA, 1% glycerol, 1% NP40; magnetic agarose GFP-trap beads 10 minutes; Western blot with MYC antisera. On the technique in general: Immunoblotting shows a protein as a band on a membrane.

Test [2] concerns the target GFP-tagged SEPT9 isoform E (human). The test is described as above.

No constants are given. Whether binding was seen depends on the method and setting. Binding seen in cells or lysates may run through a third protein. Tags and fused reporters may be left off the sequences shown.

B1: MYC-AKTIP (pCMV6-Entry-AKTIP-Myc-Flag) (protein, UniProt Q9H8T0 1-292)
chain: MNPFWSMSTSSVRKRSEGEEKTLTGDVKTSPPRTAPKKQLPSIPKNALPITKPTSPAPAAQSTNGTHASYGPFYLEYSLLAEFTLVVKQKLPGVYVQPSYRSALMWFGVIFIRHGLYQDGVFKFTVYIPDNYPDGDCPRLVFDIPVFHPLVDPTSGELDVKRAFAKWRRNHNHIWQVLMYARRVFYKIDTASPLNPEAAVLYEKDIQLFKSKVVDSVKVCTARLFDQPKIEDPYAISFSPWNPSVHDEAREKMLTQKKPEEQHNKSVHVAGLSWVKPGSVQPFSKEEKTVAT
Take B1: the binding entry in test [1] and in test [2] was “no binding” throughout.

Values taken from PMC8428793.
